The values are deposited in ChEMBL (CHEMBL3988442, “University of Dundee, Small-Polar-MMV Screening Library” (2021)).

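Viability assay of Plasmodium falciparum sporozoites; the read-out is not stated. The concentration is filed as 10 mM, unlikely as a test dose, so the dose is not known. Direction is inferred from retests: higher values go with lower viability. Strong results were mostly tested again. About 34,000 compounds were tested under these conditions; 0.84% (about 280) showed 50% or more at least once.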

Each number is a percent effect as filed.
The record does not define 0% and 100%; most values in the screen are far below 50% and negative numbers occur (in some assays of this library far below -100).
Compounds were drawn at random from those tested, without regard to their results.
Two or more numbers in one place are separate tests of the same structure; such repeats can differ widely.

| # | Compound | percent effect |
|---|---|---|
| 1 | `Cc1noc(C(C)N2CCN(CCN3CCCC3=O)CC2)n1` (stereo not drawn) | 6.62 |
| 2 | `CC(NC(=O)N1CCC(c2ccccc2)CC1)c1nncn1C` (stereo not drawn) | 4.864 |
| 3 | `Cc1cccc(C2CCCN(C(=O)c3ccncc3)C2)n1` (stereo not drawn) | 7.595 |
| 4 | `CCn1cc(NC(=O)NCC(C)(C)N2CCc3ccccc3C2)cn1` | 4.796 |
| 5 | `Cc1ccc(C(C)N(C)Cc2nc3c(cnn3C)c(=O)[nH]2)s1` (stereo not drawn) | 6.702 |
| 6 | `CCCn1nnc(NCc2ccccc2OCc2ccc(Cl)cc2)n1` | -6.714 |
| 7 | `Cn1cc(Cl)cc1C(=O)N1CCN(Cc2ccsc2)CC1` | 17.64 |
| 8 | `Cc1ccc(N2CCCN(C(=O)C(C)OCC3CC3)CC2)nn1` (stereo not drawn) | -5.66 |
| 9 | `CC(=O)N1CCN(Cc2nnc(C(C)(C)C)o2)CC1` | 1.294 |
| 10 | `Cc1cc(C(=O)N2CCCC(c3ccc(C(=O)O)cc3)C2)c(C)o1` (stereo not drawn) | -6.625 |
| 11 | `[H][C@@]12CC[C@H](Oc3cccc(F)c3)[C@]1([H])CN(C(=O)c1ncccc1C)C2` | -7.901 |
| 12 | `COc1ccc(CN2CCC(O)CC2)c(OC)c1` | 1.294 |
| 13 | `O=C(c1csc(Br)c1)N1CCCC(n2ccnc2)C1` (stereo not drawn) | -19.09 |
| 14 | `CCN(CC)Cc1cn2c(n1)CN(C(=O)c1cc(C)on1)CC2.O=C(O)C(F)(F)F` | -5.943 |
| 15 | `C[C@H](O)CNc1cc(-c2cn[nH]c2)ncn1` | 3.81 |
| 16 | `Cn1cnc2c1CCN(Cc1noc(-c3ccccc3)n1)C2` | 27.15 and 22.74 and 28.11 |
| 17 | `CNCC(=O)N1CCCC(c2nccnc2Oc2cccc(F)c2)C1.Cl` (stereo not drawn) | 4.729 |
| 18 | `COc1cccc(CNCc2ccnc(N3CCOCC3)c2)c1OC` | 5.289 |
| 19 | `CCOCC(O)CN1CCN(C(=O)Cc2cccc(Cl)c2)CC1` (stereo not drawn) | 4.244 |
| 20 | `CCCOc1ncccc1CNc1nnc(C)c(C)c1C#N` | 5.273 |
| 21 | `CCc1n[nH]c(C2CN(C(=O)c3cc4c(s3)CCCC4)CCO2)n1` (stereo not drawn) | -4.694 and 1.616 and -0.2467 |
| 22 | `O=C1N(Cc2cccc(F)c2)CCC12CCCNC2` (stereo not drawn) | -3.24 |
| 23 | `COc1cc(C(=O)N(Cc2cnn(C)c2)C(C)C)ccc1OC(C)C` | 3.695 |
| 24 | `NC(=O)CNC(c1ccccc1)c1ccccc1` | -19.67 and -24.71 |
| 25 | `Cc1nc(C)n(C2CCCN(C(=O)c3cc(C4CC4)on3)C2)n1` (stereo not drawn) | 6.48 |
| 26 | `CC(C)NC(=O)CS(=O)(=O)c1cc2c(cc1Cl)OCCO2` | -4.571 |
| 27 | `[H][C@]12CC[C@]([H])(CN(S(=O)(=O)N(C)C)C1)N(C/C=C/c1ccc(F)cc1)C2` | 6.311 |
| 28 | `Cc1nc(C2CCCN2CC(=O)Nc2c(C)n[nH]c2C)no1` (stereo not drawn) | 15.81 |
| 29 | `CCS(=O)(=O)N1CCc2c(nc(C3CCCN3)nc2NC)C1.Cl` (stereo not drawn) | 2.494 |
| 30 | `Cc1csc(C2CCCCN2C(=O)c2cc(C)n(C)n2)n1` (stereo not drawn) | -0.5796 |
| 31 | `CNc1cc(C2CCCN2Cc2ccc(OCC(=O)O)cc2)ccn1` (stereo not drawn) | -1.466 |
| 32 | `Cc1ccc(N2CCCC(NCc3nnc(-c4ccco4)o3)C2)nn1` (stereo not drawn) | 15.4 |
| 33 | `COc1ccc(C)cc1NC(=O)c1c(C)cn(C)c1CC(=O)O` | -7.073 |
| 34 | `c1cc(CCn2ccc(NC3CCSCC3)n2)ccn1` | -12.62 |
| 35 | `Cc1nc(C)c(C(=O)N2CCc3nnc(C4CCCN4C)n3CC2)s1` (stereo not drawn) | -4.692 |
| 36 | `Cc1ccc(CN2CCc3c(nnn3C)C2COCc2ccccc2)s1.O=C(O)C(F)(F)F` (stereo not drawn) | -5.122 |
| 37 | `Cc1csc2c(N3CCNC(C(=O)Nc4ccc(F)cc4)C3)ncnc12` (stereo not drawn) | -12.46 |
| 38 | `O=C(Cc1cccc(F)c1)N1CCn2cc(Cn3cccn3)nc2C1.O=C(O)C(F)(F)F` | 7.302 |
| 39 | `COCCn1cc(NC(=O)N(CCC(N)=O)Cc2ccccc2)cn1` | -34.09 and -24.7 |
| 40 | `O=C(c1cc2cccc(F)c2[nH]1)N1C[C@@H](O)[C@H](N2CCOCC2)C1` | 0.6341 |
| 41 | `Cc1cc(CNc2ccc(-c3nc(C4CC4)no3)cn2)no1` | -1.776 |
| 42 | `c1ccc(-n2ccc(CNC3CCc4ncnn4C3)n2)cc1` (stereo not drawn) | 9.411 |
| 43 | `CN(C)CCN(C)C(=O)Cc1ccc2c(c1)OCCO2.O=C(O)CC(O)(CC(=O)O)C(=O)O` | 9.372 |
| 44 | `O=C(NCCc1coc(-c2ccc(F)cc2)n1)NC1CCC(O)CC1` (stereo not drawn) | 0.2451 |
| 45 | `CC(C)Cn1[nH]cc/c1=N\C(=O)CN1CCOC(Cn2cccn2)C1` (stereo not drawn) | -5.797 |
| 46 | `CN1CCC2(CC1)CN(C(=O)c1cccnc1)Cc1ccccc12` | 11.06 |
| 47 | `CCN1CCN(CC(C)(O)c2cccc(C(F)(F)F)c2)CC1` (stereo not drawn) | 3.2 |
| 48 | `CC(Cn1cccn1)NCc1nc(-c2ccccn2)no1` (stereo not drawn) | 27.38 |
| 49 | `O=C(Nc1cnn(CCN2CCOCC2)c1)c1cc(F)ccc1F` | -0.9893 |
| 50 | `Cc1c(CN2CCCC(O)C2)[nH]c2ccc(F)cc12` (stereo not drawn) | 7.168 |
| 51 | `O=C(O)C(F)(F)F.[H][C@@]12CCN(CCc3ccccc3)C[C@]1([H])[C@H](C(=O)N(C)C)CCO2` | -11.27 |
| 52 | `CCN1CCOCC2(CCCN(C(=O)c3cnccn3)C2)C1` (stereo not drawn) | -17.15 |
| 53 | `CCn1c(C)nnc1CN(C)C1CCN(CCc2ccncc2)C1` (stereo not drawn) | -16.88 |
| 54 | `O=C(O)C(F)(F)F.O=C(O)C(F)(F)F.O=C(O)C(F)(F)F.c1cncc(CN2CCC3(CC2)CC(c2cccnc2)CO3)c1` (stereo not drawn) | -0.08772 |
| 55 | `O=C(O)C(F)(F)F.O=C(O)C(F)(F)F.c1cncc(CN2CCCn3nnc(COCC4CC4)c3C2)c1` | -5.642 |
| 56 | `CCc1nc2ccccc2c(=O)n1CC1(O)CCNCC1.Cl` | -2.944 |
| 57 | `Cc1cnn(CC2CCCCN2CCCS(N)(=O)=O)c1` (stereo not drawn) | 6.127 |
| 58 | `CCc1c(C(=O)NCC2CCS(=O)(=O)C2)cnn1-c1ccccc1` (stereo not drawn) | 9.375 |
| 59 | `O=C(O)C(F)(F)F.[H][C@@]12C[C@H](C(=O)N3CCCCO3)CN(CC3CC3)[C@]1([H])CCO2` | -0.945 |
| 60 | `CCc1ccccc1CNC(=O)CNC(=O)C(C)(C)C` | 0.5549 |
| 61 | `CS(=O)(=O)N1CCCn2nc(CNc3ncccn3)cc2C1` | -14 |
| 62 | `Cc1ccc(CNCC2Cn3nncc3CO2)o1` (stereo not drawn) | 4.378 |
| 63 | `[H][C@@]12CC(=O)N(Cc3csc(C)n3)[C@@]1([H])CCN2Cc1cnn(C)c1` | -7.22 |
| 64 | `CCn1cc(NC(=O)NCCN2CCc3ccccc3C2)cn1` | -2.347 |
| 65 | `O=C(O)c1c[nH]c2cc(NS(=O)(=O)c3cccc(Cl)c3F)ccc12` | 12.76 |
| 66 | `O=C(O)C(F)(F)F.O=C(O)C(F)(F)F.[H][C@@]12CCCO[C@]1([H])[C@H](N(C)Cc1ccco1)CN(CCOC)C2` | -10.73 |
| 67 | `COCCN(C)C(=O)c1ccc(OC)cc1O` | 4.771 |
| 68 | `O=C(O)C(F)(F)F.O=C(O)C(F)(F)F.[H][C@]12C[C@H](CN(C)C)O[C@@]1([H])CN(Cc1ccc(OC)cc1)C2` | 6.042 |
| 69 | `CC(CNC(=O)N(C)Cc1ccco1)N1CCc2sccc2C1` (stereo not drawn) | -2.517 and 3.785 |
| 70 | `NC1CCCN(Cc2cccc(C(F)(F)F)c2)C1=O` (stereo not drawn) | 1.253 |
| 71 | `O=C(CC1OCCc2ccccc21)NCCn1cccc1` (stereo not drawn) | -1.643 |
| 72 | `O=C(Cc1cccs1)NC1CCN(c2cccc(F)c2)CC1` | 0.3542 |
| 73 | `CCc1nc(C2CCCN2C(=O)c2ccc3c(c2)[nH]c(=O)n3C)no1` (stereo not drawn) | 1.709 |
| 74 | `Cc1noc(C)c1CN1CCCC1c1c(C)nn(C)c1Cl` (stereo not drawn) | -4.578 |
| 75 | `CC(C)N1CCC(Cn2cc(C(N)=O)cn2)CC1` | -7.108 |
| 76 | `Cc1cc(NC(=O)NCC(CC(C)C)N2CCOCC2)n(C)n1` (stereo not drawn) | -1.809 and 22.73 and -9.699 |
| 77 | `CC(=O)Nc1c(C)noc1/C=C\c1ccc(S(=O)(=O)N2CCCC2)cc1` | -11.37 |
| 78 | `O=C(CC1CCN(CCc2ccccc2)CC1)NC1CCOCC1` | 2.621 |
| 79 | `CNC(=O)c1cc(C)n(-c2cccc(OC)c2)c1C` | -0.6244 |
| 80 | `CC1COCCN1Cc1nc(-c2ccc(Br)s2)no1` (stereo not drawn) | -4.378 |
| 81 | `COC(=O)C1CCN(c2cc(C)nc(-c3ccncc3)n2)CC1` | 10.67 |
| 82 | `Cc1ccc(C(=O)N2CCCC(c3cc(C(F)(F)F)[nH]n3)C2)o1` (stereo not drawn) | 3.105 |
| 83 | `CSCC(=O)N1CCOC(c2nc(C)n[nH]2)C1` (stereo not drawn) | -14.38 |
| 84 | `Cc1cc(C)c(CNC(=O)N(C)Cc2ccc(F)cc2)c(=O)[nH]1` | -2.603 |
| 85 | `Cc1cccc(C2(CNC(=O)c3ccnc(N(C)C)c3)CCOCC2)c1` | 7.186 |
| 86 | `CC(C)C(C(=O)N1CCC(Nc2cccnn2)CC1)n1cncn1` (stereo not drawn) | -4 |
| 87 | `c1ccc(Cc2noc(CN3CCCC3C3CCCCC3)n2)cc1` (stereo not drawn) | -16.91 |
| 88 | `CCN1CCn2c(C)cnc2C12CCN(C(=O)c1cscn1)CC2.O=C(O)C(F)(F)F.O=C(O)C(F)(F)F` | 6.137 |
| 89 | `O=C(O)C(F)(F)F.O=C(O)C(F)(F)F.[H][C@@]12OCCN(Cc3ccc(OC)cc3)[C@@]1([H])CC[C@H]2OCCN1CCCC1` | 17.37 |

5 of the entries, repeated:

Compound,percent effect
CCc1nc(C2CCCN2C(=O)c2ccc3c(c2)[nH]c(=O)n3C)no1 (stereo not drawn),1.709
O=C(O)C(F)(F)F.O=C(O)C(F)(F)F.[H][C@]12C[C@H](CN(C)C)O[C@@]1([H])CN(Cc1ccc(OC)cc1)C2,6.042
[H][C@@]12CC(=O)N(Cc3csc(C)n3)[C@@]1([H])CCN2Cc1cnn(C)c1,-7.22
O=C(Cc1cccc(F)c1)N1CCn2cc(Cn3cccn3)nc2C1.O=C(O)C(F)(F)F,7.302
Cc1cc(CNc2ccc(-c3nc(C4CC4)no3)cn2)no1,-1.776